From publication PMC9039064
These are yes or no findings as the source states them, for the method shown. Binding seen in cells or lysates may run through a third protein. Binding can be weak; no strength is given. For some assays here: Sequences can lack the tags named with a protein.

Protein sequences, listed by entry. Tags and fused reporters are not part of them. Lines headed by an entry give the natural chain unless they say otherwise; changes in a name come on top.
UniProt Q00987: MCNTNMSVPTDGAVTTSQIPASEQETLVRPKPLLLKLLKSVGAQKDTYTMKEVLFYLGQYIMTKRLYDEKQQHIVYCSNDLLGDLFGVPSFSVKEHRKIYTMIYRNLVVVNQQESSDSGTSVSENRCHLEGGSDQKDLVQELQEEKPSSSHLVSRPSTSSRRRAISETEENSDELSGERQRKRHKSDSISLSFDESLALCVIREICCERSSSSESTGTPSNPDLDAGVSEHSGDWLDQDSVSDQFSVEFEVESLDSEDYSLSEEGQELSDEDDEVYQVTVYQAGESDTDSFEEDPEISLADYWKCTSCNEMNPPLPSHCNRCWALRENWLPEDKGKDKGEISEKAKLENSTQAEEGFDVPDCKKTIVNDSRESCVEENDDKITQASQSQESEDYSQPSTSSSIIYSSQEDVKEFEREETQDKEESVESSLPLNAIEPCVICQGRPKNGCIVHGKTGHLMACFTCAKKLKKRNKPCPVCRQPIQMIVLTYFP

What was measured:
[1] = target: MDM2, endogenous in rat lung (rat (endogenous in rat lung)); assay: co-IP; endogenous proteins, adult rat lung lysate by the legends (the text says A549 cells); IP with mouse anti-MDM2 or rabbit anti-KL; immunoblot
MDM2-HA = MDM2-HA (UniProt Q00987); assay: co-IP; transfected A549 cells (the text says HEK-293 for Fig. 5A); lysate in TNE buffer or IP buffer (50 mM Tris-HCl, 2 mM EDTA, 250 mM NaCl, 10% glycerol, 0.5% NP-40); IP with anti-FLAG, anti-HA or anti-Myc and Protein G agarose overnight at 4 °C; immunoblot; some samples with SHANK1 overexpression, sh/si-SHANK1 or si-MDM2

| binding [1] | binding (MDM2-HA) | Binder |
| --- | --- | --- |
| binds | – | Klotho (KL), endogenous in rat lung (protein, UniProt Q9Z2Y9 35-1014) AEPGQGAQTWARFARPPVPEASGLLHDTFPDGFLWAVGSAAYQTEGGWRQHGKGASIWDTFTHHPRAIPEDSPIVMAPSGAPLPPLPSTGDVASDSYNNVYRDTEGLRELGVTHYRFSISWARVLPNGTAGTPNREGLRYYRRLLERLRELGVQPVVTLYHWDLPQRLQDTYGGWANRALADHFRDYAELCFRHFGGQVKYWITIDNPYVVAWHGYATGRLAPGVRGSSRLGYLVAHNLLLAHAKVWRLYNTSFRPTQGGRVSIALGSHWITPRRMTDYHIRECQKSLDFVLGWFAKPIFIDGDYPKSMKNNLSSLLPDFTESEKRFIRGTADFFALSFGPTLSFQLLDPSMKFRQLESPSLRQLLSWIDLEYNHPQIFIVENGWFVSGTTRRDDAKYMYYLKKFIMESLKAIRLDGVDVIGYTAWSLMDGFEWHRGYSIRRGLFYVDFLSQDKELLPKSSALFYQKLIENNGFPPLPENQPLEGTFPCDFAWGVVDNYIQVDPTLSQFTDPNVYLWDVHHSKRLIKVDGVVAKKRKPYCVDFSAIRPQITLLREMRVTHFRFSLDWALILPLGNQTQVNRTVLHFYRCMVSELVHANITPVVALWQPATPHQGLPHALAKHGAWENPHTALAFADYANLCFEELGHWVKFWITINEPNSRNMTYRAGHHLLKAHALAWHLYDDKFRAAQKGKISIALQVDWIEPACPFSQKDKEVAERVLEFDVGWLAEPIFGSGDYPHVMREWLNQKNNFLLPYFTEDEKKLIRGSFDFLALSHYTTILVDWEKEDPIKYNDYLEVQEMTDITWLNSPNQVAVVPWGLRKALNWLRFKYGDLPMFVTANGIDDDPHAEQDSLRMYYIKNYVNEALKAYVLDGINLCGYFAYSLSDRSVPKSGFYRYAANQFEPKPSIKHYRKIIDNNGFLGSGTLGRFCPEEYTVCTGCGFFQTRKSLLAFISFLVFAFVTSLALIYYYSKKGRRRYK |
| – | binds | Flag-KL (Flag-tagged Klotho) (protein, UniProt Q9UEF7 34-1012) EPGDGAQTWARFSRPPAPEAAGLFQGTFPDGFLWAVGSAAYQTEGGWQQHGKGASIWDTFTHHPLAPPGDSRNASLPLGAPSPLQPATGDVASDSYNNVFRDTEALRELGVTHYRFSISWARVLPNGSAGVPNREGLRYYRRLLERLRELGVQPVVTLYHWDLPQRLQDAYGGWANRALADHFRDYAELCFRHFGGQVKYWITIDNPYVVAWHGYATGRLAPGIRGSPRLGYLVAHNLLLAHAKVWHLYNTSFRPTQGGQVSIALSSHWINPRRMTDHSIKECQKSLDFVLGWFAKPVFIDGDYPESMKNNLSSILPDFTESEKKFIKGTADFFALCFGPTLSFQLLDPHMKFRQLESPNLRQLLSWIDLEFNHPQIFIVENGWFVSGTTKRDDAKYMYYLKKFIMETLKAIKLDGVDVIGYTAWSLMDGFEWHRGYSIRRGLFYVDFLSQDKMLLPKSSALFYQKLIEKNGFPPLPENQPLEGTFPCDFAWGVVDNYIQVDTTLSQFTDLNVYLWDVHHSKRLIKVDGVVTKKRKSYCVDFAAIQPQIALLQEMHVTHFRFSLDWALILPLGNQSQVNHTILQYYRCMASELVRVNITPVVALWQPMAPNQGLPRLLARQGAWENPYTALAFAEYARLCFQELGHHVKLWITMNEPYTRNMTYSAGHNLLKAHALAWHVYNEKFRHAQNGKISIALQADWIEPACPFSQKDKEVAERVLEFDIGWLAEPIFGSGDYPWVMRDWLNQRNNFLLPYFTEDEKKLIQGTFDFLALSHYTTILVDSEKEDPIKYNDYLEVQEMTDITWLNSPSQVAVVPWGLRKVLNWLKFKYGDLPMYIISNGIDDGLHAEDDQLRVYYMQNYINEALKAHILDGINLCGYFAYSFNDRTAPRFGLYRYAADQFEPKASMKHYRKIIDSNGFPGPETLERFCPEEFTVCTECSFFHTRKSLLAFIAFLFFASIISLSLIFYYSKKGRRSYK |
